The source gives many values for each of these; only a part stands here.
Assay: Toxicokinetics and tissue disposition of total [14C] radioactivity after a single intratracheal dose of [14C]-PCB52 (0.157 mg/kg) in pregnant rats at GD 11±1
Format: in vivo, Sprague–Dawley rats
Method: Female Sprague–Dawley rats (8 weeks old) weighing 237–269.7 g (mean = 247.5 g) (Envigo RMS, LLC, Indianapolis, IN) were used for this study. All animal experiments were performed following the protocols evaluated and approved by the University of Iowa Institutional Animal Care and Use Committee (approval number 3091097). After arrival, the animals were acclimated for 7 days. The animals were housed in a light and temperature-controlled environment with ad libitum access to food and water during quarantine and throughout the study. Timed pregnancy was achieved by harem mating. , Briefly, one male and two female rats were placed together in the evening and checked for vaginal plug the following day. If vaginal plug was present, the male was removed from the breeding cage, and the gestation day 0 (GD 0), 0-day post coitum was assigned. Pregnancies were confirmed by ultrasound scan at GD 9. The dams were exposed at GD 11 (±1 day) to capture the period of early organogenesis and hormonal function, which falls within week 3 of human embryonic development. ,− On the day of the experiment, pregnant rats were intratracheally administered an average of 40 μg (range, 35–45 μg) of [^14C]-PCB52 in 100 μL of exposure solution. Although the dose used in this study exceeded the tolerable daily intake (TDI) of PCBs for healthy individuals, which is 1.6 μg per day for an individual weighing 80 kg, the use of higher acute doses has been established in toxicological studies intended for risk assessment. The intratracheal instillation method was chosen for administering [^14C]-PCB52 to represent inhalation exposures, capture exhaled concentration, and efficiently utilize the limited availability of the cost-intensive radiolabeled PCB52. , Although inhalation exposure would better represent real-world exposures to airborne LC-PCBs, it would not allow us to accurately measure the amount of PCB52 exhaled into the air after exposure and is experimentally infeasible. […] All intratracheal instillations were done under light anesthesia, achieved using a 4% isoflurane concentration via a Fortec vaporizer (Cyprane, Keighley, UK). The animals recovered from anesthesia within 1 min. Subsequently, the animals were housed within a cylindrical glass chamber measuring 2 L in volume, equipped with glass drainage mechanisms to facilitate urine collection and a metallic screen to segregate urine from feces (as in Figure S1). Air was drawn from the chamber at 6.0 L/min through a cartridge containing the XAD-2 polymeric resin to capture any exhaled [^14C]-PCB52. For periods longer than 24 h postexposure, exposed dams were placed in a metabolic cage, which was fitted with a cartridge containing XAD-2 to capture exhaled [^14C]-PCB52 as in other end points.
Maternal blood, urine, and feces samples were collected immediately before and at 0.21, 1.67, 12, 24, 48, and 96 h after lung dosing. The exposed dams were euthanized using 4% isoflurane, followed by cervical dislocation and exsanguination via a cardiac puncture. Euthanasia was consistently performed during the light cycle. Dams’ fur was wiped and analyzed for radioactivity. Using the retro-orbital blood collection method, 0.5–1.5 mL ([…] of an exposed pregnant rat’s body weight) of blood sample was collected from each of the dams until the individual dams were necropsied for whole-body tissue harvesting. At the end of the exposure period, the chamber’s interior walls were rinsed separately with water and acetone/hexane (25 – 45 mL) and wiped to measure residues. From the collected whole blood samples, 100 μL were aliquoted into three vials each, and the remaining blood was allowed to clot at room temperature before being centrifuged to yield serum. The placentas, developing fetuses, and whole-body tissue samples were harvested immediately before exposure and at 0.21, 1.67, 12, 24, and 96 h postexposure. […]

[1] = Matter in colon, 12 h post-exposure
[2] = Matter in colon, 24 h post-exposure
[3] = Matter in colon, 96 h post-exposure
[4] = Pituitary, 0.21 h post-exposure
[5] = Pituitary, 1.67 h post-exposure
[6] = Rectal amp., 0.21 h post-exposure
[7] = Rectal amp., 1.67 h post-exposure
[8] = Rectal amp., 12 h post-exposure
[9] = Rectal amp., 24 h post-exposure
[10] = Rectal amp., 96 h post-exposure
[11] = Small intestine, 0.21 h post-exposure
[12] = Small intestine, 1.67 h post-exposure
[13] = Small intestine, 12 h post-exposure
[14] = Small intestine, 24 h post-exposure
[15] = Small intestine, 96 h post-exposure

## Clc1ccc(Cl)c(-c2cc(Cl)ccc2Cl)c1 [PCB52, 2,2′,5,5′-Tetrachlorobiphenyl]
Matter in colon, 1.67 h post-exposure
  Percent tissue distribution: 0.11%
[1]
  Conc. per mg wet tissue: 65.87 dpm/mg
  Percent tissue distribution: 4.20%
[2]
  Conc. per mg wet tissue: 66.81 dpm/mg
  Percent tissue distribution: 5.74%
[3]
  Conc. per mg wet tissue: 10.10 dpm/mg
  Percent tissue distribution: 0.36%
Matter in duodenum
  C96: 22.17 dpm/mg
Matter in intestine
  C96: 6.62 dpm/mg
Matter in stomach
  C96: 4.02 dpm/mg
Muscle
  C96: 16.28 dpm/mg
Muscle, 1.67 h post-exposure
  Conc. per mg wet tissue: 12.39 dpm/mg
  Percent tissue distribution: 16.65%
Muscle, 12 h post-exposure
  Conc. per mg wet tissue: 2.86 dpm/mg
  Percent tissue distribution: 5.23%
Muscle, 24 h post-exposure
  Conc. per mg wet tissue: 6.76 dpm/mg
  Percent tissue distribution: 10.09%
Muscle, 96 h post-exposure
  Percent tissue distribution: 15.01%
Ovary
  C96: 15.41 dpm/mg
Ovary, 96 h post-exposure
  Conc. per mg wet tissue: 1.95 dpm/mg
Pancreas
  C96: 18.96 dpm/mg
Pituitary gland
  C96: 378.12 dpm/mg
[4]
  Conc. per mg wet tissue: 0.08 dpm/mg
  Percent tissue distribution: 0.01%
[5]
  Conc. per mg wet tissue: 2.59 dpm/mg
  Percent tissue distribution: 0.002%
Pituitary, 12 h post-exposure
  Conc. per mg wet tissue: 1.15 dpm/mg
  Percent tissue distribution: 0.001%
Pituitary, 24 h post-exposure
  Conc. per mg wet tissue: 1.15 dpm/mg
  Percent tissue distribution: 0.002%
Pituitary, 96 h post-exposure
  Conc. per mg wet tissue: 0.08 dpm/mg
  Percent tissue distribution: 0.02%
Placenta
  C96: 0.74 dpm/mg
Placenta, 0.21 h post-exposure
  Conc. per mg wet tissue: 9.19 dpm/mg
  Percent tissue distribution: 0.17%
Placenta, 1.67 h post-exposure
  Conc. per mg wet tissue: 6.13 dpm/mg
  Percent tissue distribution: 0.21%
Placenta, 12 h post-exposure
  Conc. per mg wet tissue: 9.49 dpm/mg
  Percent tissue distribution: 0.04%
Placenta, 24 h post-exposure
  Conc. per mg wet tissue: 10.39 dpm/mg
  Percent tissue distribution: 0.11%
Placenta, 96 h post-exposure
  Conc. per mg wet tissue: 4.93 dpm/mg
  Percent tissue distribution: 0.02%
Rectal Amp.
  C96: 48.04 dpm/mg
[6]
  Conc. per mg wet tissue: 14.88 dpm/mg
  Percent tissue distribution: 0.20%
[7]
  Conc. per mg wet tissue: 5.18 dpm/mg
  Percent tissue distribution: 0.12%
[8]
  Conc. per mg wet tissue: 1.10 dpm/mg
  Percent tissue distribution: 0.30%
[9]
  Conc. per mg wet tissue: 1.73 dpm/mg
  Percent tissue distribution: 0.22%
[10]
  Conc. per mg wet tissue: 1.12 dpm/mg
  Percent tissue distribution: 0.09%
Salivary gland
  C96: 10.94 dpm/mg
Serum, 0.21 h post-exposure
  Conc. per mg wet tissue: 5.04 dpm/mg
  Percent tissue distribution: 3.05%
Serum, 1.67 h post-exposure
  Conc. per mg wet tissue: 7.66 dpm/mg
  Percent tissue distribution: 1.36%
Serum, 12 h post-exposure
  Conc. per mg wet tissue: 9.41 dpm/mg
  Percent tissue distribution: 0.69%
Serum, 24 h post-exposure
  Conc. per mg wet tissue: 8.23 dpm/mg
  Percent tissue distribution: 0.92%
Serum, 96 h post-exposure
  Conc. per mg wet tissue: 2.68 dpm/mg
  Percent tissue distribution: 0.21%
Skin
  C96: 26.05 dpm/mg
Skin, 0.21 h post-exposure
  Conc. per mg wet tissue: 14.76 dpm/mg
  Percent tissue distribution: 9.66%
Skin, 1.67 h post-exposure
  Conc. per mg wet tissue: 29.78 dpm/mg
  Percent tissue distribution: 18.89%
Skin, 12 h post-exposure
  Conc. per mg wet tissue: 12.17 dpm/mg
  Percent tissue distribution: 24.12%
Skin, 24 h post-exposure
  Conc. per mg wet tissue: 13.13 dpm/mg
  Percent tissue distribution: 19.52%
Skin, 96 h post-exposure
  Conc. per mg wet tissue: 3.58 dpm/mg
  Percent tissue distribution: 8.73%
Small Intestine
  C96: 34.90 dpm/mg
[11]
  Conc. per mg wet tissue: 11.75 dpm/mg
  Percent tissue distribution: 1.17%
[12]
  Conc. per mg wet tissue: 2.40 dpm/mg
  Percent tissue distribution: 3.31%
[13]
  Conc. per mg wet tissue: 0.85 dpm/mg
  Percent tissue distribution: 1.58%
[14]
  Conc. per mg wet tissue: 1.66 dpm/mg
  Percent tissue distribution: 1.25%
[15]
  Conc. per mg wet tissue: 0.56 dpm/mg
  Percent tissue distribution: 0.47%
Spleen
  C96: 5.48 dpm/mg
Stomach
  C96: 8.52 dpm/mg
Thymus
  C96: 8.05 dpm/mg
Thymus, 0.21 h post-exposure
  Conc. per mg wet tissue: 9.77 dpm/mg
  Percent tissue distribution: 0.11%
Thymus, 1.67 h post-exposure
  Conc. per mg wet tissue: 5.38 dpm/mg
  Percent tissue distribution: 0.11%
Thymus, 12 h post-exposure
  Conc. per mg wet tissue: 1.76 dpm/mg
  Percent tissue distribution: 0.03%
Thymus, 24 h post-exposure
  Conc. per mg wet tissue: 1.62 dpm/mg
  Percent tissue distribution: 0.03%
Thymus, 96 h post-exposure
  Conc. per mg wet tissue: 0.83 dpm/mg
  Percent tissue distribution: 0.01%
Thyroid
  C96: 6.46 dpm/mg
Thyroid, 1.67 h post-exposure
  Conc. per mg wet tissue: 16.43 dpm/mg
  Percent tissue distribution: 0.019%
Thyroid, 12 h post-exposure
  Conc. per mg wet tissue: 3.25 dpm/mg
  Percent tissue distribution: 0.003%
Thyroid, 24 h post-exposure
  Conc. per mg wet tissue: 3.26 dpm/mg
  Percent tissue distribution: 0.004%
Thyroid, 96 h post-exposure
  Conc. per mg wet tissue: 0.66 dpm/mg
  Percent tissue distribution: 0.001%
Uterus
  C96: 3.61 dpm/mg
